The whole screen tested about 53,000 sequences, of which about 3,700 (7%) were called active.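 How the source made its calls: active means gene knockdowns whose robust z-score for IL-1 alpha signal is at least 2 or at most -2, so actives lie on both sides; inactive means the rest.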 This is one part of the list.
Assay: Components of the Cytosolic LPS Sensing Pathway: Gene Identification via Genome-wide siRNA Screen;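 further: robust z of the log signal after scaling to non-targeting control siRNA wells of the plate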
Conditions: RAW264.7 macrophages, IL-1a HTRF, actives lie on both sides, screened at 100 nM (by protocol), cells primed 5 h with Pam3CSK4 first
How it was run: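 RAW264.7; siRNA 100 nM final, RNAiMAX, 48h 37 degrees C; Pam3CSK4 5 h; LipidA + TransIT-TKO 24 h; IL-1a HTRF; CellTiter-Glo viability; robust z vs negative-control median.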

Sequence | z-score
GGAUGUCAGAAAACAGUGCTT against Cd302 | inactive: 0.918
GGCAAGGAUUUUUCUACCUTT against Tslp | inactive: -0.555
UUUUGCACAGACCAGGGAGTT against Aspscr1 | inactive: -0.261
GGUUUAUCCAGGAAGUAUATT against Ptch1 | inactive: -0.0749
GGCUGAAGAUCACCAAGAATT against Neurl1a | inactive: -0.869
GAAAAGAGGAUUCCUUGCATT against Olfr1128 | inactive: 0.726
GGGUGAAUAAAUAAAGCUGTT against Cenps | inactive: -0.33
GCGCAGAAGAGGCUAUUAUTT against Asprv1 | inactive: -0.125
GGAUGAAAGAAAAGAAACUTT against Hoxd11 | inactive: -0.335
GGACAGUGUAGUCAAAAAATT against Cx3cr1 | inactive: 0.149
CCAUACCAUCUUUGAAACATT against Rpl21 | inactive: -0.389
GGAUCAAAUAACAAUGACATT against Hfm1 | inactive: -0.567
GAUGGUUGUAGACUUCUUATT against Olfr1216 | inactive: 0.136
CCCAUUCAAGCACUUAUGGTT against Emc4 | inactive: 0.736
CGACAGAGUGAAAAUUAAGTT against Setd3 | inactive: -0.937
GGCGCAAUGUCAAUGUGAATT against Gzmb | inactive: 0.215
CGCAUUAAGGGUUAAAGAATT against Plekhf1 | inactive: -0.225
UAACCAAGAGGGUAAAAAUTT against Adam26b | inactive: -0.201
CCUAUGAUUCAGCAAUACUTT against Col17a1 | inactive: 0.677
CCAUGCCGCUUCUUAGUCATT against Oaz1 | inactive: -1.29
CCACCAAAGCAGCAGCCAATT against Polr2k | inactive: -1.57
CGUCUUCCCUGUUUACUUATT against Susd2 | inactive: -0.283

Some of the entries so far, tab-delimited:
Sequence	z-score
GCGCAGAAGAGGCUAUUAUTT against Asprv1	inactive: -0.125
GGAUGAAAGAAAAGAAACUTT against Hoxd11	inactive: -0.335

Next entries.

Sequence | z-score
CCCAGUGCAUCGAAAAGCUTT against Kif21a | inactive: -1.14
GGACAGUAAUAUGAUGAGCTT against Lzts1 | inactive: -0.943
GGUUCAGAAGGAAGUUUUGTT against Jmy | inactive: 1.91
GCCUACAUUCAACAAACGCTT against Gcnt2 | inactive: 0.445
GGGCAUCAUAGACUGCGUGTT against Slc25a5 | inactive: -1.42
GGAAUGUCAAUCUUGAGAGTT against Asprv1 | inactive: -0.812
GGAGGGAGCAGAUUGAAACTT against Eri2 | inactive: -0.281
GGGUCGAAGGUCAGAACAATT against Ptprh | inactive: 1.63
GCUUGUUCACCCAGUUAUGTT against Hexdc | inactive: 1.15
GGUGAGCCUGGAAAAUUAUTT against Tspan6 | inactive: -0.623
GCCGUUCAUUUCAACCGUGTT against Wdr5 | inactive: -0.0339
GCAGGUGAUUGUGAUUGAATT against Ddx46 | inactive: 0.842
GGUACACUUUGAAGACAAUTT against Tmem72 | inactive: 1.47
GCACUUUUCAGUGAUAACATT against Zbed5 | inactive: -0.405
GCGAAUGCAUGAAAACUCATT against Nkapd1 | inactive: -0.386
GCUUGGCCGUGAUUGUUGCTT against Fndc10 | active: 2.35
GGUGCUGCAUGUGAAGAUGTT against Atf6b | inactive: 0.222
GGAAGAAGAGCUCUUUAAATT against Acot9 | inactive: 1.37
GGAGAAUUACGGUGCCAACTT against Ncoa3 | inactive: -0.354
CCACAGAGUUCCUAUACAATT against Pfkl | active: -2.52
GCUACAGGAGUCGACUUCATT against Lef1 | inactive: -0.348
GGAAAGUGGACACCUUCCATT against Vezt | inactive: 1.2

Sequence | z-score
GGUACAUAUGUGAUGACCGTT against Cdh4 | inactive: -0.289
GGAGCUUAAGCAGUUCACATT against Traf5 | inactive: -1.06
GGAUAAUCAUUCUUGUCACTT against Ptgfr | inactive: -0.736
CCAGUGUGAUCAAAAACACTT against Cc2d1a | inactive: 0.112
GGACUAUAGAUCCUAAGUCTT against Kcnab2 | inactive: -0.246
GCGAGAGAUCCCUCUGAAATT against Pigs | inactive: -0.284
GCUGUACCUAGAACACAACTT against Fmod | inactive: 1.7
CGGAAGGAGAGAAUGACAGTT against 1110008P14Rik | inactive: -0.901
GCAGCAGUUAAACAACCUUTT against Gstcd | inactive: 0.579
CGCGAUUCAGCUCAUUCUCTT against Slitrk1 | inactive: 0.83
CCAACCUUGCCCAUUUCCATT against Lsp1 | inactive: -0.779
GCAGGCAUCAUUACAAAAATT against Gnl2 | inactive: 0.245
GGAAGCUACCCAGAUGGAUTT against Dgkd | inactive: 1.14
GGAUGAGUUGUCAUUGAUATT against Nck1 | inactive: 0.998
GAAGCUGUCCUCAGCUCCATT against Olfr491 | inactive: -0.485
GGUGUUUUUAUGUGAACUUTT against Homer2 | inactive: 0.851
GGAGGAAAAACAGUGCAGATT against Smchd1 | inactive: -1.54
GCCGAGCUCAUCAUCAUGATT against Prss40 | active: 2.5
GGCAUGCUGGAAUCAAACATT against Dppa2 | inactive: 0.699
GCUGAUCCACGACUACUUGTT against Rab10os | inactive: 1.24
CCUUCGUAAAACAGAUUGATT against Elp1 | inactive: 0.129
GGACAUCCGAGCCAUUCUATT against Spata2 | inactive: -0.408

Sequence | z-score
GACAAGCUGUGGAGAAGUGTT against Lce1b | inactive: 0.298
GCUAUUACGGUAAUCGAGCTT against Dnajc7 | inactive: 0.721
GGCAUCUGGUAACUUUUACTT against Trim59 | inactive: -0.451
GGAGCAAGCUCAGCUUACCTT against Ube3a | inactive: -0.207
GCAAAAACCGUGAUGUGUATT against Lin37 | inactive: -0.836
CCAAGUAUUACGGAACAUCTT against Ttc6 | inactive: -0.0894
GGAAUAUGCAUAUUCAUGATT against Olfr350 | inactive: 0.723
CCACUUUUAAAGGAAUGUGTT against Ncoa1 | inactive: 1.8
GGAAGGUCAUGUGAAUAUCTT against A930002I21Rik | inactive: -1.6
GGUCUAAGACUAAAUAUCCTT against Sfxn1 | inactive: 0.396
GGACUGACACGGGUGUCUUTT against Xxylt1 | inactive: -0.21
GGCAUUGGAGAAUUGAAAATT against Sptlc2 | inactive: -0.101
CCUUCAUCUAGAAACCAAGTT against Tmem161b | inactive: -0.0464
GCAGCUGAAUACAGUCUGCTT against Nlrp9c | inactive: -0.0389
GGAGCAACCAUCCUUGUAUTT against Tmem35a | inactive: -0.525
GCCAUGUACACAGACAGUUTT against Mcm10 | inactive: 0.553
GGAUGAGGAGGUCUUUUCUTT against Pde6c | inactive: 1.65
CGCUGUUUGUUCAAGAGGATT against Thbs1 | inactive: 1.05
GGCAUACAGUUUUGGCAGUTT against Pilra | inactive: 0.0977
GGGACUCCCAGGCUGUAAATT against Zfp263 | inactive: -1.38
GGAAAACAAGAGGUGAUCUTT against Bfar | inactive: -1.62
GCUAUGGCGCAUACUGCCATT against Olfr881 | inactive: 0.803

Sequence | z-score
GCCACUGCACUAUUUAACUTT against Olfr1247 | inactive: -0.35
GGAAUAAAGAUUCCUCACATT against Teddm1a | inactive: 0.113
CGGAGUCUUCUUCUCACCUTT against A630001O12Rik | active: -2.82
GGAUGAGGAAUUUUACACUTT against Klhl11 | inactive: -0.256
GGGAUGCGAGAUGAUCUGCTT against Scrg1 | inactive: 0.172
AGUCAAGACCCAUAGAAAATT against Ociad2 | inactive: -1.87
GAGUGUCAGGUCCAAGUUATT against Vmn1r80 | inactive: 1.54
CCUUGUGGAUUCUCACUACTT against Gpn2 | inactive: -1.91
CCUUUGGACUGUACCACCUTT against Zfp869 | inactive: 0.723
CGAGUUUAAGGACAUCGAATT against Gjb2 | inactive: 0.694
CCAUGUUCGGACGUGGUCUTT against Shkbp1 | inactive: -1.17
GGAUCUGAGAUUGACCAAGTT against Usp1 | inactive: 0.994
GCCGAGUCUCAGCUUGUAATT against Dnajc3 | inactive: 0.258
GCUUAUGAGUUAUAUUGCATT against Olfr894 | inactive: -0.0213
CCACUUUAUGGCCAGCCUUTT against Nr2e3 | inactive: -0.983
CCGACCUCAACUUCAACGATT against Arhgap23 | inactive: -0.391
GAGCUGUGAAUGCCUGUGGTT against Lyz2 | active: -2.33
GGUUACUAGAAAAGUGUUGTT against Olfr1489 | inactive: 1.41
GGGUCAAUUUCUCAUGCCUTT against Icam5 | inactive: -0.717

7 entries from above, tab-delimited.
Sequence	z-score
GGGAUGCGAGAUGAUCUGCTT against Scrg1	inactive: 0.172
AGUCAAGACCCAUAGAAAATT against Ociad2	inactive: -1.87
GAGUGUCAGGUCCAAGUUATT against Vmn1r80	inactive: 1.54
CGAGUUUAAGGACAUCGAATT against Gjb2	inactive: 0.694
GCCGAGUCUCAGCUUGUAATT against Dnajc3	inactive: 0.258
CCGACCUCAACUUCAACGATT against Arhgap23	inactive: -0.391
GAGCUGUGAAUGCCUGUGGTT against Lyz2	active: -2.33
